Experimental data from the supplement of paper PMC11006884.
What follows is the remainder of the data, with few or none of the targets with a hit. Single values of this set are uncertain. This is a selection; strong and weak results do not stand in their true shares.

Amino acid sequences for entries named in this document (tags omitted). A change or cut given only in a name is not applied to a line headed by its entry.
UniProt P23528, whole entry, looked up: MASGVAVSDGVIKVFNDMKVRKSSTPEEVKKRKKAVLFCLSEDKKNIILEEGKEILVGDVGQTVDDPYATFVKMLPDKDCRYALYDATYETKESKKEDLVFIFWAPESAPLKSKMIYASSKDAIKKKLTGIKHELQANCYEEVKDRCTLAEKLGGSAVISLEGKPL
UniProt P21333, whole entry, looked up: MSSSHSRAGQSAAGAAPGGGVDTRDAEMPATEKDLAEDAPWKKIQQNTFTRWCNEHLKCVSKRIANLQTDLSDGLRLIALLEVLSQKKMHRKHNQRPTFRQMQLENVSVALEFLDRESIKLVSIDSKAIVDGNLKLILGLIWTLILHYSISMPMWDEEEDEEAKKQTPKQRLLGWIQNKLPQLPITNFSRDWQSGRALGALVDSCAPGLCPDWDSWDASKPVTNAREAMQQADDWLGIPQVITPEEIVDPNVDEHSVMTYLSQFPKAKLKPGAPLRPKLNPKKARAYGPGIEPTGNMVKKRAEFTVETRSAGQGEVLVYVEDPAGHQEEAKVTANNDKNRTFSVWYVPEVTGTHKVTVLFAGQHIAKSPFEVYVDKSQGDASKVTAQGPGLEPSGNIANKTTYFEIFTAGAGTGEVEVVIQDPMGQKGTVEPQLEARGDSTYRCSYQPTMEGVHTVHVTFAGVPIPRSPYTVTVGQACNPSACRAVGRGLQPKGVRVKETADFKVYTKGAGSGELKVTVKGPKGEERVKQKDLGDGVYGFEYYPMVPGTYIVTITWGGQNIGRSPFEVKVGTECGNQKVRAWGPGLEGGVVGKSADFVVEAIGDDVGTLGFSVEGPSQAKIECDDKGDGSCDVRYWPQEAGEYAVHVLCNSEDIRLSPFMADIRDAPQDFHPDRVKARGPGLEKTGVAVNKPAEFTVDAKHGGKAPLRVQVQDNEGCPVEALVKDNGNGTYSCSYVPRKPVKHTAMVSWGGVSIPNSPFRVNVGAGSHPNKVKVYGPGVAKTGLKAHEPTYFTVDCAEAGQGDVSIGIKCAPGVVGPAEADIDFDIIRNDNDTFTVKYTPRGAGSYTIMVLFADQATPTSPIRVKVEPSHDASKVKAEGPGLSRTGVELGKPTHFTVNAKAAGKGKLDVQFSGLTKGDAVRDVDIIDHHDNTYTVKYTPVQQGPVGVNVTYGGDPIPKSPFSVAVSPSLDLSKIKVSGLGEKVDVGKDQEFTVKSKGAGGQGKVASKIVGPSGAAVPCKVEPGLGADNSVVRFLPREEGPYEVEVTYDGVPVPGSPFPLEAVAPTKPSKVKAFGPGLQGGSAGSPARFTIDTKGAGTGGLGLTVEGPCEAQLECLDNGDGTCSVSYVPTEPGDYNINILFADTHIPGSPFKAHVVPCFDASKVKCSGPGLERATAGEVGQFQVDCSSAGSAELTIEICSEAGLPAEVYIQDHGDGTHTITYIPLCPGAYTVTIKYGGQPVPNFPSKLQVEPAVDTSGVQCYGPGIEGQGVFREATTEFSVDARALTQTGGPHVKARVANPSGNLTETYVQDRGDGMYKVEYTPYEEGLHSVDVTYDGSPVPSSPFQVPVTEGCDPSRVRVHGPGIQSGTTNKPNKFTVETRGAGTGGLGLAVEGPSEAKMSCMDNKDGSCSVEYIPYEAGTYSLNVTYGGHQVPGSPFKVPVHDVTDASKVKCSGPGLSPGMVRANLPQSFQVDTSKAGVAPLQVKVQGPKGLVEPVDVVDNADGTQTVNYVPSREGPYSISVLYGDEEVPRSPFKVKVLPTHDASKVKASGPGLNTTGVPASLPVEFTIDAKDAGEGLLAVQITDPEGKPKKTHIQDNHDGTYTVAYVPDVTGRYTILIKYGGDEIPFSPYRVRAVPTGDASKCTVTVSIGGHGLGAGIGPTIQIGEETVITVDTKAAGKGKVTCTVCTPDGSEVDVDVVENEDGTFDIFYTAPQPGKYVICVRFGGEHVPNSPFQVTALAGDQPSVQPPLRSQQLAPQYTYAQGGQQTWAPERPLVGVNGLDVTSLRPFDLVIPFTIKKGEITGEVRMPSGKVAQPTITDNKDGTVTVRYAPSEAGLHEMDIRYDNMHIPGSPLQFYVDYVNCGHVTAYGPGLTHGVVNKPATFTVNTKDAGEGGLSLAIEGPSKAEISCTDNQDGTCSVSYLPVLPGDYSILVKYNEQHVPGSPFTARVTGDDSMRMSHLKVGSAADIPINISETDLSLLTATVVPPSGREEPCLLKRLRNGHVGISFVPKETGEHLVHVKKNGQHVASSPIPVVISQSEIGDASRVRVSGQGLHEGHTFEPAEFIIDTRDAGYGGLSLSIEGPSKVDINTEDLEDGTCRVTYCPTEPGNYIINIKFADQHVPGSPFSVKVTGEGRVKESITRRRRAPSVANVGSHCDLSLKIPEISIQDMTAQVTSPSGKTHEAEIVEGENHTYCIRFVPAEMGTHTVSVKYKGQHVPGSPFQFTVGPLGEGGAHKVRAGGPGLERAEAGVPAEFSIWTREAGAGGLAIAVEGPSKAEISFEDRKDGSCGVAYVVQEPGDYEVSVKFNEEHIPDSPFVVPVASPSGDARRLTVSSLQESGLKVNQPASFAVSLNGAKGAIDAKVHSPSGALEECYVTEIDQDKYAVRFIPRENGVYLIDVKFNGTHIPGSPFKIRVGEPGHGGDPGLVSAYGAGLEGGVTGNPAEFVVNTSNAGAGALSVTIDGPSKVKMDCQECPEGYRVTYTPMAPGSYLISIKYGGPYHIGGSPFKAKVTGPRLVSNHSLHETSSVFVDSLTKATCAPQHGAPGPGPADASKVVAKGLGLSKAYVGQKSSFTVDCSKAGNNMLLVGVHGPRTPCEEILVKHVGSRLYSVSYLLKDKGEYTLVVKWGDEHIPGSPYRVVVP
UniProt P23258, whole entry, looked up: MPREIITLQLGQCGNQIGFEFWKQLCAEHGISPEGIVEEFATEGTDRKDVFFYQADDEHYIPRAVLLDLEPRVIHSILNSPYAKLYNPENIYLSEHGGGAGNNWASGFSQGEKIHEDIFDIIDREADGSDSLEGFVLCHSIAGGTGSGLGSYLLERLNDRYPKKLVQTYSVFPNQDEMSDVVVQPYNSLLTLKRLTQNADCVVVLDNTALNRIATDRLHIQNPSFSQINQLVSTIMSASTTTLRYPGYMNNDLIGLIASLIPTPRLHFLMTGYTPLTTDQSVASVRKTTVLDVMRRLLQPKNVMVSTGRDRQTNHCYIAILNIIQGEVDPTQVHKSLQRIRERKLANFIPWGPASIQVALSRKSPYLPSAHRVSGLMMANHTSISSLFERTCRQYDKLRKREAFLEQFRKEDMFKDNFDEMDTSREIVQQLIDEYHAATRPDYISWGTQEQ
UniProt P17980, whole entry, looked up: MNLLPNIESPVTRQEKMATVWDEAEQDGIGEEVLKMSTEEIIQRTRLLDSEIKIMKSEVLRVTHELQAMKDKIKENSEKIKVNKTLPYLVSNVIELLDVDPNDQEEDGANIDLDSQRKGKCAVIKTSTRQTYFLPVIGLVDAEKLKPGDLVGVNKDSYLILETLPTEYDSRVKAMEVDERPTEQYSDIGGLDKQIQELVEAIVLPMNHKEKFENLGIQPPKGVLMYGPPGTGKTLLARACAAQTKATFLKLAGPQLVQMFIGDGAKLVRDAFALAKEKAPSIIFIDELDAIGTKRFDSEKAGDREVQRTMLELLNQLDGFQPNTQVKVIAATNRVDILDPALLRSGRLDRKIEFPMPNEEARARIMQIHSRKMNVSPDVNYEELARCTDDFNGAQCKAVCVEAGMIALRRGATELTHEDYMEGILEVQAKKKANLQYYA
UniProt P28066: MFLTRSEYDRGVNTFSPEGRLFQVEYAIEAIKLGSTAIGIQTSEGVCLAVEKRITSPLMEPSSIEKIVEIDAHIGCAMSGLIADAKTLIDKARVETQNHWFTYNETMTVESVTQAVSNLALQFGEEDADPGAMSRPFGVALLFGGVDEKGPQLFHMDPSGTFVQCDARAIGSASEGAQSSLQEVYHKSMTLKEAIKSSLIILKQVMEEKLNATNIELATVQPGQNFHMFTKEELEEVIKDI
UniProt P26599: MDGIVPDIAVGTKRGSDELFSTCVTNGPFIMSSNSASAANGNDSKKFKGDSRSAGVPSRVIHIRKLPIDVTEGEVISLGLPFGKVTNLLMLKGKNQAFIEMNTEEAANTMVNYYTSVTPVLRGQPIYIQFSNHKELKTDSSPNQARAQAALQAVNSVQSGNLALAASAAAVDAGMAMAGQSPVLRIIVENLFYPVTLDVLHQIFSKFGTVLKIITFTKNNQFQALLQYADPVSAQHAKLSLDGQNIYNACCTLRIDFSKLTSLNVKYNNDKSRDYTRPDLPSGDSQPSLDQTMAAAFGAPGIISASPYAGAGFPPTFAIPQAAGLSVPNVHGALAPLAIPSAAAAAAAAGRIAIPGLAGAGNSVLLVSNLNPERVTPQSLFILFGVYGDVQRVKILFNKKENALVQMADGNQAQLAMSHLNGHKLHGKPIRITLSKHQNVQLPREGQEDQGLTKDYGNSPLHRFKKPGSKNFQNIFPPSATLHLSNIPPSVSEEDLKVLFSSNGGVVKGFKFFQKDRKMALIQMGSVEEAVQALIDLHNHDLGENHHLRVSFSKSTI
UniProt P19404, whole entry: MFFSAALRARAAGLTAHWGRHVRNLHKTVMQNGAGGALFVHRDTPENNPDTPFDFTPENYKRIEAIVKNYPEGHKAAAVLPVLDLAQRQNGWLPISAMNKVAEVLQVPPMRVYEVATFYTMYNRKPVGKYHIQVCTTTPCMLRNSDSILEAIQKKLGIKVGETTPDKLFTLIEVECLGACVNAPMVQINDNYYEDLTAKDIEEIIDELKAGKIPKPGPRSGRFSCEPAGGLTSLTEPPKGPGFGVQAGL
UniProt P17987, whole entry, looked up: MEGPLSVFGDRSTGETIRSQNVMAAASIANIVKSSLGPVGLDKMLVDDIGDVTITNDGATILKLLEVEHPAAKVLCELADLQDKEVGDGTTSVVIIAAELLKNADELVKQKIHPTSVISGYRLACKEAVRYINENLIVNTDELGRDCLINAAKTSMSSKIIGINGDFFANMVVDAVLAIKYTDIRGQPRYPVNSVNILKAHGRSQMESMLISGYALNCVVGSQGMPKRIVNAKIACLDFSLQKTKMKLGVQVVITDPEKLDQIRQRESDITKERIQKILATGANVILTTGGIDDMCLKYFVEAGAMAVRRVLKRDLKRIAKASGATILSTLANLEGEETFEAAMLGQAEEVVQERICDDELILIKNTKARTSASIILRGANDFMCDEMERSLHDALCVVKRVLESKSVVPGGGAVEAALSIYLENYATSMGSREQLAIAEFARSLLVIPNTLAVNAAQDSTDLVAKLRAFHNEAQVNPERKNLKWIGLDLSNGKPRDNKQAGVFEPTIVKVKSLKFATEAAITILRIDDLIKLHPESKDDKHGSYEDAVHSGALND
UniProt P26640: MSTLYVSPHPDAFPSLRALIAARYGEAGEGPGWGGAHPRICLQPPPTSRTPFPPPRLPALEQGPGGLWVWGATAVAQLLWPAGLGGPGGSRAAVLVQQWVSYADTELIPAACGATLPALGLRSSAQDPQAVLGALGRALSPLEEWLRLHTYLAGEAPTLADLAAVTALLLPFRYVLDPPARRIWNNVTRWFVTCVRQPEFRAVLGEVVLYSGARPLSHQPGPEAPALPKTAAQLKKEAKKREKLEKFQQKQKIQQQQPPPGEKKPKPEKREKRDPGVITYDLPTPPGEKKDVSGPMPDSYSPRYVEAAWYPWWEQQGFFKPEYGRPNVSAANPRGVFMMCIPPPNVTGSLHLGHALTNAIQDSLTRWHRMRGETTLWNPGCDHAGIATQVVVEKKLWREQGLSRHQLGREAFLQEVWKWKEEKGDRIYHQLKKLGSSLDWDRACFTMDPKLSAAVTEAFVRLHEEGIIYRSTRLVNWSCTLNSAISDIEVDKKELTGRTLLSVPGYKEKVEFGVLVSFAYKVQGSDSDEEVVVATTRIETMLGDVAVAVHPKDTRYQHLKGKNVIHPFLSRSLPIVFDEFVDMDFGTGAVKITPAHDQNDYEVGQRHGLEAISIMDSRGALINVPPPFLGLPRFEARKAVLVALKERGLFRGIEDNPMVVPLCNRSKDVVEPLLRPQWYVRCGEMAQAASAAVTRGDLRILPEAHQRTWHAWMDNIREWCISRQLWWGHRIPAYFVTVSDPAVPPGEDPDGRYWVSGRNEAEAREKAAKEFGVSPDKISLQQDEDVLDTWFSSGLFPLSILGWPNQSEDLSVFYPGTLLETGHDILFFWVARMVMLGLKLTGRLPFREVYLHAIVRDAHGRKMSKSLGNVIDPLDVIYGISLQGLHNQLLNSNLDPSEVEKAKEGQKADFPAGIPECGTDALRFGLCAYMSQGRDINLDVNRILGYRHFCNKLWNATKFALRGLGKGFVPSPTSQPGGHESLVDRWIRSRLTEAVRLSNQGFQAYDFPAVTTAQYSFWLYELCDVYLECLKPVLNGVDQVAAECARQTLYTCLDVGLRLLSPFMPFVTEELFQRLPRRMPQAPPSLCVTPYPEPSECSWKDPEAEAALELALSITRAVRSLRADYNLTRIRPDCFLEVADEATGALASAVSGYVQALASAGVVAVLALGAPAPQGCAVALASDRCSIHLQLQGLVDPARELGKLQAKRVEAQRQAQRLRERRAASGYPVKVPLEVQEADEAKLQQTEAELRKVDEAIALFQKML

Compound: COC(=O)/C=C/c1ccccc1 [methyl cinnamate]
Assay: log2 ratio of iodoacetamide-alkyne labeling of the cysteine site, DMSO over compound (competition); higher = stronger covalent engagement of the cysteine by the compound, active = 1 or more
Details: 500 µM; treatment time 1 h; system: HEK293T cell lysate
How it was run: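 After 1 h at ambient temperature with vehicle or electrophile (500 µM), HEK293T lysate (2 mg/mL) was labelled for 1 h with iodoacetamide alkyne and clicked to sCIP-TMT reagents. Pooled samples were trypsin-digested overnight at 37 °C, streptavidin-enriched, acid-eluted and analysed by Orbitrap Eclipse LC-MS/MS with FAIMS, then quantified in FragPipe over three replicates with duplicate channels. A cysteine's log2 competition ratio is its mean control-channel over mean compound-channel reporter intensity. Cysteines quantified in only one replicate were not included.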

log2 ratio of iodoacetamide-alkyne labeling, inactive:
CFL1 C39 (UniProt P23528) -0.189
FLNA C478 (UniProt P21333) 0.0938
TPP2 C967 (UniProt P29144) 0.197
CAST C413 (UniProt P20810) 0.359
FLNA C1912 (UniProt P21333) 0.133
UniProt P27361_C271 -0.0102
TUBG1 C138 (UniProt P23258) 0.158
MCM3 C119 (UniProt P25205) 0.312
PSMC3 C387 (UniProt P17980) 0.0271
RPL17 C144 (UniProt P18621) 0.0747
APC C914 (UniProt P25054) 0.155
SFPQ C297 (UniProt P23246) -0.204
CFL1 C139 (UniProt P23528) 0.553
DTYMK C163 (UniProt P23919) 0.128
CAD C1636 (UniProt P27708) 0.242
UniProt P28066_C76 -0.0805
RPL7 C186 (UniProt P18124) 0.0435
DNMT1 C580 (UniProt P26358) -0.0432
PTBP1 C23 (UniProt P26599) 0.177
PRDX3 C229 (UniProt P30048) 0.483
FLNA C623 (UniProt P21333) 0.0546
FLNA C2601 (UniProt P21333) 0.187
RPL17 C57 (UniProt P18621) 0.359
NDUFV2 C225 (UniProt P19404) 0.00595
EPHA2 C612 (UniProt P29317) 0.209
BCKDHB C177 (UniProt P21953) 0.0562
TCP1 C296 (UniProt P17987) -0.177
PAICS C81 (UniProt P22234) -0.0135
PSMA1 C156 (UniProt P25786) -0.23
DCK C9 (UniProt P27707) 0.207
GART C646 (UniProt P22102) 0.0886
NDUFS1 C226 (UniProt P28331) -0.192
GLDC C612 (UniProt P23378) 0.0276
ATP6V1B2 C207 (UniProt P21281) 0.14
VARS C381 (UniProt P26640) 0.173
ACAT1 C119 (UniProt P24752) 0.0602
RPL10 C105 (UniProt P27635) 0.219

Nothing new here: entries from further up.
log2 ratio of iodoacetamide-alkyne labeling, inactive:
FLNA C478 (UniProt P21333) 0.0938
TPP2 C967 (UniProt P29144) 0.197
CAST C413 (UniProt P20810) 0.359
FLNA C1912 (UniProt P21333) 0.133
UniProt P27361_C271 -0.0102
TUBG1 C138 (UniProt P23258) 0.158
MCM3 C119 (UniProt P25205) 0.312
